Measured values taken from the supplement of paper PMC4604168 (melanoma cell lines).
This is one part of the list. Many values rest on one well or one pass, so single values are uncertain.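 Cells were imaged in 1,536-well plates, and nuclei stained with an antibody against cleaved PARP were counted against all DNA-stained nuclei to give the apoptosis fraction. Screening doses were chosen to leave most cells alive, and resting and induced cleaved-PARP levels differ strongly between cell lines.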

tested on: COLO792; test: cleaved PARP positive nuclei fraction relative to DMSO control; melanoma cells; higher = more apoptosis; conditions: library dose: low library concentration; 72 h

Row | Compound | cleaved PARP positive nuclei fraction [%]
1 | Nc1nc(F)nc2c1ncn2[C@@H]1O[C@H](CO)[C@@H](O)[C@@H]1O [fludarabine] + COc1cc(N2CCC(N3CCN(C)CC3)CC2)ccc1Nc1ncc(Cl)c(Nc2ccccc2S(=O)(=O)C(C)C)n1 [NVP-TAE684] (first compound 0.2 µM, partner dose 0.08 µM) | 73.9
2 | Nc1ncn([C@H]2C[C@H](O)[C@@H](CO)O2)c(=O)n1 [decitabine] + COc1ccc(-c2ccc3c(N4CCOCC4)nc(N4C[C@@H](C)O[C@@H](C)C4)nc3n2)cc1CO [KU0063794] (first compound 0.1 µM, partner dose 0.02 µM) | 125
3 | CCCS(=O)(=O)Nc1ccc(F)c(C(=O)c2c[nH]c3ncc(Cl)cc23)c1F + Oc1cc(-c2nc(-c3ccccc3)[nH]c2-c2ccncc2)ccc1Cl [L779450] (first compound 0.08 µM, partner dose 0.2 µM) | 97.6
4 | C=C(c1ccc(C(=O)O)cc1)c1cc2c(cc1C)C(C)(C)CCC2(C)C [Bexarotene] + CCCCCCCCCCCC1=C(O)C(=O)C=C(O)C1=O [Embelin] (first compound 2 µM, partner dose 1.2 µM) | 109
5 | O=C(O)c1ccc2c(c1)nc(Nc1cccc(Cl)c1)c1ccncc12 + Oc1nc(-c2ccc(C(F)(F)F)cc2)nc2c1CSCC2 [XAV939] (first compound 0.4 µM, partner dose 2 µM) | 50.2
6 | C=C(c1ccc(C(=O)O)cc1)c1cc2c(cc1C)C(C)(C)CCC2(C)C [Bexarotene] + COC(=O)c1sccc1S(=O)(=O)Nc1ccc(Nc2ccccc2)cc1OC [GSK0660] (first compound 2 µM, partner dose 1 µM) | 87.5
7 | Nc1nc(F)nc2c1ncn2[C@@H]1O[C@H](CO)[C@@H](O)[C@@H]1O [fludarabine] + COc1ccc2c(c1)CCC1C2CCC2(C)C(NCCCCCCN3C(=O)C=CC3=O)CCC12 [U73122] (first compound 0.2 µM, partner dose 0.4 µM) | 118
8 | O=C(O)[C@@H]1[O][Sb](=[O])([O][Sb]2(=[O])[O][C@H]([C@H](O)CO)[C@H](O)[C@H](C(=O)O)[O]2)[O][C@H]([C@H](O)CO)[C@@H]1O (some centres not stated) [stibogluconate] + O=C(O)C(=O)Nc1sc2c(c1C(=O)O)CCNC2 [TCS401] (first compound 2 µM, partner dose 1.66667 µM) | 26.3
9 | C=C(c1ccc(C(=O)O)cc1)c1cc2c(cc1C)C(C)(C)CCC2(C)C [Bexarotene] + Cc1cc([N+](=O)[O-])ccc1NS(=O)(=O)c1cc(Cl)ccc1Cl [FH535] (first compound 2 µM, partner dose 1 µM) | 68.1
10 | C=C(c1ccc(C(=O)O)cc1)c1cc2c(cc1C)C(C)(C)CCC2(C)C [Bexarotene] + COc1ccc(COc2ccc(Cc3cnc(N)nc3N)cc2OC)cc1 [GW2580] (first compound 2 µM, partner dose 1 µM) | 101
11 | Nc1nc(F)nc2c1ncn2[C@@H]1O[C@H](CO)[C@@H](O)[C@@H]1O [fludarabine] + O=C(Nc1ccccc1)c1cc([N+](=O)[O-])ccc1Cl [GW9662] (first compound 0.2 µM, partner dose 2 µM) | 47.6
12 | CC(C)C[C@H](NC(=O)[C@H](Cc1ccccc1)NC(=O)c1cnccn1)B(O)O [Bortezomib] + COC(=O)c1sccc1S(=O)(=O)Nc1ccc(Nc2ccccc2)cc1OC [GSK0660] (first compound 0.001 µM, partner dose 1 µM) | 58.8
13 | CN1CCN(c2ccc3nc(-c4c(N)c5c(F)cccc5[nH]c4=O)[nH]c3c2)CC1 [Dovitinib] + COc1ccc(COc2ccc(Cc3cnc(N)nc3N)cc2OC)cc1 [GW2580] (first compound 0.1 µM, partner dose 1 µM) | 113
14 | Cn1c(=O)n(-c2ccc(C(C)(C)C#N)cc2)c2c3cc(-c4cnc5ccccc5c4)ccc3ncc21 + Cc1cc([N+](=O)[O-])ccc1NS(=O)(=O)c1cc(Cl)ccc1Cl [FH535] (first compound 0.004 µM, partner dose 1 µM) | 32.1
15 | CCCS(=O)(=O)Nc1ccc(F)c(C(=O)c2c[nH]c3ncc(Cl)cc23)c1F + Oc1nc(-c2ccc(C(F)(F)F)cc2)nc2c1CSCC2 [XAV939] (first compound 0.08 µM, partner dose 2 µM) | 138
16 | Nc1nc(F)nc2c1ncn2[C@@H]1O[C@H](CO)[C@@H](O)[C@@H]1O [fludarabine] + COc1ccc(-c2ccc3c(N4CCOCC4)nc(N4C[C@@H](C)O[C@@H](C)C4)nc3n2)cc1CO [KU0063794] (first compound 0.2 µM, partner dose 0.02 µM) | 93.2
17 | CS(=O)(=O)CCNCc1ccc(-c2ccc3ncnc(Nc4ccc(OCc5cccc(F)c5)c(Cl)c4)c3c2)o1 [lapatinib] + O=C(Nc1ccccc1)c1cc([N+](=O)[O-])ccc1Cl [GW9662] (first compound 0.8 µM, partner dose 2 µM) | 53
18 | C=C(c1ccc(C(=O)O)cc1)c1cc2c(cc1C)C(C)(C)CCC2(C)C [Bexarotene] + CCc1ccc(CCOc2ccc(CC3SC(=O)NC3=O)cc2)nc1 [pioglitazone] (first compound 2 µM, partner dose 2 µM) | 98.4
19 | C=C(c1ccc(C(=O)O)cc1)c1cc2c(cc1C)C(C)(C)CCC2(C)C [Bexarotene] + c1cc(-c2cnn3cc(-c4ccc(OCCN5CCCCC5)cc4)cnc23)ccn1 [Dorsomorphin] (first compound 2 µM, partner dose 0.4 µM) | 67.4
20 | CS(=O)(=O)CCNCc1ccc(-c2ccc3ncnc(Nc4ccc(OCc5cccc(F)c5)c(Cl)c4)c3c2)o1 [lapatinib] + COc1cc(N2CCC(N3CCN(C)CC3)CC2)ccc1Nc1ncc(Cl)c(Nc2ccccc2S(=O)(=O)C(C)C)n1 [NVP-TAE684] (first compound 0.8 µM, partner dose 0.08 µM) | 192
21 | CNC(=O)c1cc(Oc2ccc(NC(=O)Nc3ccc(Cl)c(C(F)(F)F)c3)cc2)ccn1 [sorafenib] + CCN(CC)CCCCNc1ncc2cc(-c3cc(OC)cc(OC)c3)c(NC(=O)NC(C)(C)C)nc2n1 [PD173074] (first compound 0.4 µM, partner dose 0.1 µM) | 13.3
22 | CO[C@H]1C[C@@H]2CC[C@@H](C)[C@@](O)(O2)C(=O)C(=O)N2CCCC[C@H]2C(=O)O[C@H]([C@H](C)C[C@@H]2CC[C@@H](OCCO)[C@H](OC)C2)CC(=O)[C@H](C)/C=C(\C)[C@@H](O)[C@@H](OC)C(=O)[C@H](C)C[C@H](C)/C=C/C=C/C=C/1C [everolimus] + O=C1NC(=O)/C(=C/c2ccc(-c3ccc(F)cc3O)o2)S1 [AS252424] (first compound 0.02 µM, partner dose 1 µM) | 86.4

For convenience, part of the list above.
Row | Compound | cleaved PARP positive nuclei fraction [%]
14 | Cn1c(=O)n(-c2ccc(C(C)(C)C#N)cc2)c2c3cc(-c4cnc5ccccc5c4)ccc3ncc21 + Cc1cc([N+](=O)[O-])ccc1NS(=O)(=O)c1cc(Cl)ccc1Cl [FH535] (first compound 0.004 µM, partner dose 1 µM) | 32.1
15 | CCCS(=O)(=O)Nc1ccc(F)c(C(=O)c2c[nH]c3ncc(Cl)cc23)c1F + Oc1nc(-c2ccc(C(F)(F)F)cc2)nc2c1CSCC2 [XAV939] (first compound 0.08 µM, partner dose 2 µM) | 138
